# Reference: US8906416B2, “Xanthenedione derivatives for the treatment of pigmentation and skin ageing disorders” (Pierre Fabre Dermo-Cosmetique, priority 2010, dated 2014)
# For at least one compound, name, drawing or mass did not settle the structure.
# Assay: Antioxidant capacity by chemiluminescence (Photochem Analytik Jena)
# Type: biochemical
# Details: superoxide anion trapping
# Procedure: This test is used to determine the antioxidant capacity of molecules. It is a method that generates free radicals by a photochemical signal. The intensity of the oxidation is 1000 times greater than those obtained under normal conditions.
# The detection is performed by chemiluminescence. It enables the evaluation of hydrosoluble and liposoluble antioxidant molecules or extracts.
# The results are expressed respectively in equivalent quantity of vitamin C or Trolox (6-hydroxy-2,5,7,8-tetramethylchroman-2-carboxylic acid). The sensitivity is of the order of the nanomole.
# The antioxidant activity studied in this test represents the capacity to specifically trap the superoxide anions by chemiluminescence.
# The quantified results are expressed in equivalent Trolox (standard), i.e. in “μg of product for 1 μg of Trolox”. This signifies that a quantity x of sample is required to obtain an activity equivalent to the activity detected for 1 μg of standard. It is an anti-oxidant power relative to a reference, which can be determined independently of the tested concentration. […]
# Part of the superoxide anions is quenched by anti-oxidants. The remaining free radicals are quantified by chemiluminescence. L^o^++O2^o^−→N2+[…]→AP^2−+hv(luminescence) AP*^2−: aminophthalate in the excited state
structure (smiles),measurement,value
"COc1cc(C2C3=C(CC(c4ccc(F)cc4)CC3=O)OC3=C2C(=O)CC(c2ccc(F)cc2)C3)ccc1O (stereo not shown) [Example 13, 3,6-bis(4-fluorophenyl)-9-(4-hydroxy-3-methoxyphenyl)-3,4,5,6,7,9-hexahydro-1H-xanthene-1,8(2H)-dione]",μg of sample for 1 μg of Trolox,2.52 μg of sample for 1 μg of Trolox
